Article PMC7575537
These are yes or no findings as the source states them, for the method shown. In cells and extracts the contact can be indirect. Some results given as binding are weak or reduced against the parent protein; the word gives no strength.

By UniProt entry, the sequences of proteins in these tests, tags left out.
UniProt P06537: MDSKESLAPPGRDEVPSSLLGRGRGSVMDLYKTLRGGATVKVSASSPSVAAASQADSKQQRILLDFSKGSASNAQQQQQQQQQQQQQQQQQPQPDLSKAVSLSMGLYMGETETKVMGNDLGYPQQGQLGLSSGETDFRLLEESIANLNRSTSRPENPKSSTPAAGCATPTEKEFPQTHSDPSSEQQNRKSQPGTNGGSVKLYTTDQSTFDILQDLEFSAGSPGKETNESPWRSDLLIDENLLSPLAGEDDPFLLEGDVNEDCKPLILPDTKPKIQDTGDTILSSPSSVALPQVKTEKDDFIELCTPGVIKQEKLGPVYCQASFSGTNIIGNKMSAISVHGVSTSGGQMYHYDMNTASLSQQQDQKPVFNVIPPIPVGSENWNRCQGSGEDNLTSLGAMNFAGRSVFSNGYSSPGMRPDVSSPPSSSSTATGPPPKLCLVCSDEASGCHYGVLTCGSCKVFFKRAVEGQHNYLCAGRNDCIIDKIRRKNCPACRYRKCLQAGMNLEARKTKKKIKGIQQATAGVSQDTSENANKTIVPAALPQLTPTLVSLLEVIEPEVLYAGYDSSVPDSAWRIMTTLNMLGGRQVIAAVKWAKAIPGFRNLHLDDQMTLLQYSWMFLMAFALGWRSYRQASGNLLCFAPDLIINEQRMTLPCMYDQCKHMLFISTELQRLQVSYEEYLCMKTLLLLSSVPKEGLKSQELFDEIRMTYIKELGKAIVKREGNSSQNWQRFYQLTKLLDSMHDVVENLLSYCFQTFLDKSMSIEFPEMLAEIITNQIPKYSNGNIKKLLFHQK
UniProt P63158: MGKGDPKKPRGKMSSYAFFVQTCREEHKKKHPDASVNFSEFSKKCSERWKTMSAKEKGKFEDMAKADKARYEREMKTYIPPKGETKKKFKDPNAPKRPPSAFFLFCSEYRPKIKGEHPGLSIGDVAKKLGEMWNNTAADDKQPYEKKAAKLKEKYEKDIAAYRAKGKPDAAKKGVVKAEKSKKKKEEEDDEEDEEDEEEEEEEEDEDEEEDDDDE

Key:
[1] = target: glucocorticoid receptor (mouse (endogenous in heart tissue)) (UniProt P06537); test: co-IP; WT mouse heart tissue lysates (neonatal, 2-week-old and 12-week-old); 1 mg precleared lysate, overnight at 4 °C with anti-HMGB1 or anti-GR antibody coupled to Protein A/G PLUS-Agarose; normal mouse or rabbit IgG as control; western blot
[2] = target: High-mobility group box 1 (mouse (endogenous in heart tissue)) (UniProt P63158); test: as above

| Substance | binding [1] | binding [2] |
| --- | --- | --- |
| High-mobility group box 1 (from UniProt P63158 1-215) | binds | – |
| glucocorticoid receptor (from UniProt P06537 1-792) | – | binds |
